{"source": "PubChem BioAssay AID590", "about": "(National Center for Advancing Translational Sciences (NCATS), 2007)", "note": "Among all 59,000 compounds or so, about 6,500 (11%) were called active. The shares of active, inactive and inconclusive entries below differ from those in the screen. Rule as the data show it: active = max dye-equivalent concentration above about 10 nM; inconclusive = mostly about 1.1 nM to 9.6 nM; inactive = weaker than that."}
{"experiment": "qHTS Assay for Spectroscopic Profiling in A350 Spectral Region", "settings": "Compound autofluorescence, 340/450 nm, Alexa 350 dye-equivalents; stronger effect = higher value"}
{"smiles": "Nc1nc2n(n1)C(c1ccco1)CC(c1ccc(Cl)c(Cl)c1)N2", "note": "(configuration not stated)", "max dye-equivalent concentration": "inconclusive: 1.5 nM"}
{"smiles": "O=C(Cn1cnnn1)OCC(=O)c1ccc(Cl)s1", "max dye-equivalent concentration": "inconclusive: 10 nM"}
{"smiles": "O=C(Oc1cccnc1)c1ccco1", "max dye-equivalent concentration": "inconclusive: 1.4 nM"}
{"smiles": "O=C(O)CCc1ccc(-c2cccs2)n1CCC(=O)O", "max dye-equivalent concentration": "inconclusive: 9.7 nM"}
{"smiles": "CC(C)(C)C(=O)CNS(=O)(=O)c1ccc(S(=O)(=O)NC2CCCC2)cc1", "max dye-equivalent concentration": "inactive"}
{"smiles": "CCc1ccc(NC(=O)CSC2=C(C#N)C(c3ccco3)C3=C(CCCC3=O)N2)cc1", "note": "(configuration not stated)", "max dye-equivalent concentration": "inconclusive: 1.2 nM"}
{"smiles": "O=C(Nn1cnnc1)c1ccccc1CCc1ccccc1", "max dye-equivalent concentration": "active: 51 nM"}
{"smiles": "CCc1ncc(CO)n1Cc1cccc2ccccc12", "max dye-equivalent concentration": "inconclusive: 2.3 nM"}
{"smiles": "COc1ccccc1Nc1ncc(C(C)=O)c(C)n1", "max dye-equivalent concentration": "inactive"}
{"smiles": "Cc1ccc(CCNS(=O)(=O)c2cnc[nH]2)cc1", "max dye-equivalent concentration": "inactive"}
{"smiles": "C=CCn1c(SCc2nc3ccccc3[nH]2)nnc1-c1ccccn1", "max dye-equivalent concentration": "inconclusive: 5.4 nM"}
{"smiles": "CN1CCCN(C(=O)Cc2c(Cl)cccc2Cl)c2nc3ccccc3nc21", "max dye-equivalent concentration": "active: 150 nM"}
{"smiles": "Cc1cc(NC(=O)CSc2nnc3c(C)cc4cc5c(cc4n23)OCO5)no1", "max dye-equivalent concentration": "inconclusive: 10 nM"}
{"smiles": "CCOc1ccc(-n2c(SC)nc3c(c2=O)SCC3)cc1", "max dye-equivalent concentration": "inconclusive: 1.8 nM"}
{"smiles": "O=C(c1cnn2cccnc12)N1CCN(Cc2ccc3c(c2)OCO3)CC1", "max dye-equivalent concentration": "inconclusive: 2.6 nM"}
{"smiles": "COC(=O)c1cc2c(ccn2-c2ccc(F)cc2)n1CC(=O)N1CCN(C(=O)c2ccco2)CC1", "max dye-equivalent concentration": "inconclusive: 2.1 nM"}
{"smiles": "CCCc1cc(=O)n2[nH]c(CCc3ccccc3)nc2n1", "max dye-equivalent concentration": "inconclusive: 2.2 nM"}
{"smiles": "O=C(c1cccs1)N(Cc1nc2sc3c(c2c(=O)[nH]1)CCCC3)C1CCCC1", "max dye-equivalent concentration": "inconclusive: 3.1 nM"}
{"smiles": "CCCn1c(NC(=O)c2cccc(S(=O)(=O)N3CCCC3)c2)nc2ccccc21", "max dye-equivalent concentration": "active: 30 nM"}
{"smiles": "COc1ccc(NC(=O)CS(=O)CC(=O)NC2CCCc3ccccc32)cc1", "note": "(configuration not stated)", "max dye-equivalent concentration": "active: 11 nM"}
{"smiles": "Cc1cc(OCCSc2nnc(-c3cccs3)n2C)ccc1Cl", "max dye-equivalent concentration": "inconclusive: 1.1 nM"}
{"smiles": "CCOC(=O)Cc1c(C)nc2c(-c3ccccc3)c[nH]n2c1=O", "max dye-equivalent concentration": "active: 38 nM"}
{"smiles": "O=C(O)c1cc2nc(-c3ccccc3)cc(C(F)(F)F)n2n1", "max dye-equivalent concentration": "inconclusive: 4.7 nM"}
{"smiles": "N#CC(C#N)=c1ccc2c(c1)N1C3=C(CCCC3)CC3CCCCC31N=2", "note": "(configuration not stated)", "max dye-equivalent concentration": "inactive"}
{"smiles": "O=C(CC1(O)C(=O)N(Cc2ccccc2Cl)c2ccccc21)c1ccco1", "note": "(configuration not stated)", "max dye-equivalent concentration": "inactive"}
{"smiles": "Cc1noc(C)c1C(=O)OCC(=O)NCCC1=CCCCC1", "max dye-equivalent concentration": "inconclusive: 3.7 nM"}
{"smiles": "CCCC(=O)N1CCN(c2ccc(NC(=O)c3cc4ccccc4o3)cc2Cl)CC1", "max dye-equivalent concentration": "inconclusive: 6.7 nM"}
{"smiles": "CCOc1ccccc1NC(=O)Nc1cc(OC)ccc1OC", "max dye-equivalent concentration": "inactive"}
{"smiles": "Nc1c(NCCC2=CCCCC2)c(=O)[nH]c(=O)n1Cc1ccccc1", "max dye-equivalent concentration": "inconclusive: 6 nM"}
{"smiles": "COc1ccc(NC(C)=O)cc1NC(=O)CSc1nnc(-c2ccncc2)n1C", "max dye-equivalent concentration": "inconclusive: 1.2 nM"}
{"smiles": "COC(=O)n1ccc(C(=O)Nc2ccccc2F)n1", "max dye-equivalent concentration": "inactive"}
{"smiles": "CCOC(=O)CC1=C(C#N)C(c2cccnc2)C(C(=O)OCC)=C(N)O1", "note": "(configuration not stated)", "max dye-equivalent concentration": "inactive"}
{"smiles": "COc1ccccc1-c1nc(SCC(=O)O)n[nH]1", "max dye-equivalent concentration": "inactive"}
{"smiles": "CN(C)CCN(Cc1ccccc1)c1ccccn1", "max dye-equivalent concentration": "active: 270 nM"}
{"smiles": "O=C(O)Cn1c(O)c(C=Nc2ccccc2)sc1=S", "max dye-equivalent concentration": "inconclusive: 9.4 nM"}
{"smiles": "CC1(C)CC(NC(=O)CCC2CCCC2)CC(C)(C)N1", "max dye-equivalent concentration": "inactive"}
{"smiles": "COCCNC(=O)c1ccc(CS(=O)(=O)c2ccccc2)o1", "max dye-equivalent concentration": "inconclusive: 1.1 nM"}
{"smiles": "O=C(c1c(Cl)cccc1Cl)N1CCN(c2ccccn2)CC1", "max dye-equivalent concentration": "inactive"}
{"smiles": "CN1CCN(Cc2cc(COCc3ccccc3)c3cccnc3c2O)CC1", "max dye-equivalent concentration": "inconclusive: 1.1 nM"}
{"smiles": "COC(=O)c1[nH]c2cccc(OC)c2c1NC(=O)CN1CCC(C(N)=O)(N2CCCCC2)CC1", "max dye-equivalent concentration": "inconclusive: 3 nM"}
{"smiles": "CN1C(=O)Cc2cc(S(=O)(=O)N3CCOCC3)ccc21", "max dye-equivalent concentration": "inactive"}
{"smiles": "CCCn1c(=N)c(C(=O)NCC2CCCO2)cc2c(=O)n3cccc(C)c3nc21", "note": "(configuration not stated)", "max dye-equivalent concentration": "active: 31000 nM"}
{"smiles": "CCOC(=O)C1=C(C)N(C)C(C)=C(C(=O)OCC)C1c1cccnc1", "max dye-equivalent concentration": "active: 11 nM"}
{"smiles": "COc1ccccc1CNc1ccc(N2CCOCC2)c(C(=O)O)c1", "max dye-equivalent concentration": "active: 14 nM"}
{"smiles": "CCN(CC)CCn1c(=S)[nH]c2ccc(Cl)cc2c1=O", "max dye-equivalent concentration": "inconclusive: 3.3 nM"}
{"smiles": "COC(=O)c1cc(NC(=O)Cn2c(=O)cnc3ccccc32)cc(C(=O)OC)c1", "max dye-equivalent concentration": "active: 28 nM"}
{"smiles": "CCOc1ccc(-n2c(SCC)nc3c(c2=O)SCC3)cc1", "max dye-equivalent concentration": "inconclusive: 2.5 nM"}
